{"source": "PubChem BioAssay AID1259308 (NCATS, 2017)", "assay": "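Candidate targets for better recombinant protein yield in mammalian cells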 (primary screen)", "cell system": "human HEK293 embryonic kidney cells stably expressing firefly luciferase (HEK-CMV-Luc2-Hygro)", "reagent": "single siRNA against human genes, 0.8 pmol siRNA per well", "time to read-out": "72 h", "read-out": "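Luciferase light (ONE-Glo) measured on one replicate plate set and viability (CellTiter-Glo) on the other, scaled to a negative control siRNA, with robust z-scores and luciferase per cell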", "reading the numbers": "total luciferase, z-score and total luciferase, % of control: higher = more reporter protein produced", "call rule": "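Active when the median/MAD z-score for overall luciferase is greater than 3; a gene was taken forward for validation with new siRNAs if at least two of its three siRNAs passed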", "calls": "active = raised luciferase; inactive = no rise", "note": "The whole screen tested about 59,000 reagents; below is a part drawn at random. In the full data, about 1,510 (2.6%) were called active. 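Calls use total luciferase alone and ignore viability, so some active siRNAs may act by altering cell number.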 Reagents against one gene are numbered here. Further read-outs or replicates are left out here."}
{"gene":"WNT3 (Wnt family member 3)","reagent":1,"total luciferase, z-score":1.09,"total luciferase, % of control":104,"activity call":"inactive"}
{"gene":"WNT3 (Wnt family member 3)","reagent":2,"total luciferase, z-score":-0.748,"total luciferase, % of control":67,"activity call":"inactive"}
{"gene":"WNT3 (Wnt family member 3)","reagent":3,"total luciferase, z-score":-0.445,"total luciferase, % of control":73,"activity call":"inactive"}
{"gene":"LCN10 (lipocalin 10)","reagent":1,"total luciferase, z-score":-1.64,"total luciferase, % of control":49.3,"activity call":"inactive"}
{"gene":"LCN10 (lipocalin 10)","reagent":2,"total luciferase, z-score":0.678,"total luciferase, % of control":95.4,"activity call":"inactive"}
{"gene":"LCN10 (lipocalin 10)","reagent":3,"total luciferase, z-score":1.11,"total luciferase, % of control":104,"activity call":"inactive"}
{"gene":"WEE1 (WEE1 G2 checkpoint kinase)","reagent":1,"total luciferase, z-score":-2.95,"total luciferase, % of control":23.3,"activity call":"inactive"}
{"gene":"WEE1 (WEE1 G2 checkpoint kinase)","reagent":2,"total luciferase, z-score":0.14,"total luciferase, % of control":84.7,"activity call":"inactive"}
{"gene":"WEE1 (WEE1 G2 checkpoint kinase)","reagent":3,"total luciferase, z-score":-0.252,"total luciferase, % of control":76.9,"activity call":"inactive"}
{"gene":"CAAP1 (caspase activity and apoptosis inhibitor 1)","reagent":1,"total luciferase, z-score":-3.03,"total luciferase, % of control":21.6,"activity call":"inactive"}
{"gene":"CAAP1 (caspase activity and apoptosis inhibitor 1)","reagent":2,"total luciferase, z-score":-0.192,"total luciferase, % of control":78.1,"activity call":"inactive"}
{"gene":"CAAP1 (caspase activity and apoptosis inhibitor 1)","reagent":3,"total luciferase, z-score":0.374,"total luciferase, % of control":89.3,"activity call":"inactive"}
{"gene":"NFATC4 (nuclear factor of activated T cells 4)","reagent":1,"total luciferase, z-score":-0.0281,"total luciferase, % of control":81.3,"activity call":"inactive"}
{"gene":"NFATC4 (nuclear factor of activated T cells 4)","reagent":2,"total luciferase, z-score":-0.0139,"total luciferase, % of control":81.6,"activity call":"inactive"}
{"gene":"NFATC4 (nuclear factor of activated T cells 4)","reagent":3,"total luciferase, z-score":2.4,"total luciferase, % of control":130,"activity call":"inactive"}
{"gene":"TBC1D10C (TBC1 domain family member 10C)","reagent":1,"total luciferase, z-score":-0.949,"total luciferase, % of control":63,"activity call":"inactive"}
{"gene":"TBC1D10C (TBC1 domain family member 10C)","reagent":2,"total luciferase, z-score":1.04,"total luciferase, % of control":103,"activity call":"inactive"}
{"gene":"TBC1D10C (TBC1 domain family member 10C)","reagent":3,"total luciferase, z-score":-0.966,"total luciferase, % of control":62.7,"activity call":"inactive"}
{"gene":"CLDN10 (claudin 10)","reagent":1,"total luciferase, z-score":-1.54,"total luciferase, % of control":51.3,"activity call":"inactive"}
{"gene":"CLDN10 (claudin 10)","reagent":2,"total luciferase, z-score":4.14,"total luciferase, % of control":164,"activity call":"active"}
{"gene":"CLDN10 (claudin 10)","reagent":3,"total luciferase, z-score":0.654,"total luciferase, % of control":94.9,"activity call":"inactive"}
{"gene":"CXorf38 (chromosome X open reading frame 38)","reagent":1,"total luciferase, z-score":-0.584,"total luciferase, % of control":70.3,"activity call":"inactive"}
{"gene":"CXorf38 (chromosome X open reading frame 38)","reagent":2,"total luciferase, z-score":0.552,"total luciferase, % of control":92.9,"activity call":"inactive"}
{"gene":"CXorf38 (chromosome X open reading frame 38)","reagent":3,"total luciferase, z-score":1.47,"total luciferase, % of control":111,"activity call":"inactive"}

Look-ups from the list.
Value for TBC1D10C (TBC1 domain family member 10C) #1 under “total luciferase, z-score”: -0.949
NFATC4 (nuclear factor of activated T cells 4) #3, total luciferase, z-score: 2.4
Under “total luciferase, % of control”, CLDN10 (claudin 10) #3 is entered as 94.9

The results go on:
{"gene":"VCY (variable charge Y-linked)","reagent":1,"total luciferase, z-score":-0.68,"total luciferase, % of control":68.4,"activity call":"inactive"}
{"gene":"VCY (variable charge Y-linked)","reagent":2,"total luciferase, z-score":-0.106,"total luciferase, % of control":79.8,"activity call":"inactive"}
{"gene":"VCY (variable charge Y-linked)","reagent":3,"total luciferase, z-score":2.04,"total luciferase, % of control":123,"activity call":"inactive"}
{"gene":"FKBP11 (FKBP prolyl isomerase 11)","reagent":1,"total luciferase, z-score":-1.61,"total luciferase, % of control":49.8,"activity call":"inactive"}
{"gene":"FKBP11 (FKBP prolyl isomerase 11)","reagent":2,"total luciferase, z-score":-0.119,"total luciferase, % of control":79.5,"activity call":"inactive"}
{"gene":"FKBP11 (FKBP prolyl isomerase 11)","reagent":3,"total luciferase, z-score":0.589,"total luciferase, % of control":93.6,"activity call":"inactive"}
{"gene":"PHLDA2 (pleckstrin homology like domain family A member 2)","reagent":1,"total luciferase, z-score":0.42,"total luciferase, % of control":90.2,"activity call":"inactive"}
{"gene":"PHLDA2 (pleckstrin homology like domain family A member 2)","reagent":2,"total luciferase, z-score":-0.251,"total luciferase, % of control":76.9,"activity call":"inactive"}
{"gene":"PHLDA2 (pleckstrin homology like domain family A member 2)","reagent":3,"total luciferase, z-score":-1.32,"total luciferase, % of control":55.7,"activity call":"inactive"}
{"gene":"OR1F1 (olfactory receptor family 1 subfamily F member 1)","reagent":1,"total luciferase, z-score":-2.22,"total luciferase, % of control":37.7,"activity call":"inactive"}
{"gene":"OR1F1 (olfactory receptor family 1 subfamily F member 1)","reagent":2,"total luciferase, z-score":-1.19,"total luciferase, % of control":58.2,"activity call":"inactive"}
{"gene":"OR1F1 (olfactory receptor family 1 subfamily F member 1)","reagent":3,"total luciferase, z-score":0.0856,"total luciferase, % of control":83.6,"activity call":"inactive"}
{"gene":"WWC2 (WW and C2 domain containing 2)","reagent":1,"total luciferase, z-score":-1.48,"total luciferase, % of control":52.5,"activity call":"inactive"}
{"gene":"WWC2 (WW and C2 domain containing 2)","reagent":2,"total luciferase, z-score":0.0616,"total luciferase, % of control":83.1,"activity call":"inactive"}
{"gene":"WWC2 (WW and C2 domain containing 2)","reagent":3,"total luciferase, z-score":-0.593,"total luciferase, % of control":70.1,"activity call":"inactive"}
{"gene":"ZBTB33 (zinc finger and BTB domain containing 33)","reagent":1,"total luciferase, z-score":-0.796,"total luciferase, % of control":66.1,"activity call":"inactive"}
{"gene":"ZBTB33 (zinc finger and BTB domain containing 33)","reagent":2,"total luciferase, z-score":0.0936,"total luciferase, % of control":83.7,"activity call":"inactive"}
{"gene":"ZBTB33 (zinc finger and BTB domain containing 33)","reagent":3,"total luciferase, z-score":0.819,"total luciferase, % of control":98.2,"activity call":"inactive"}
